In the supplement of paper PMC7666118:
The list shows a part of the results.

Amino acid sequences for entries named in this document (tags omitted). A change or cut given only in a name is not applied to a line headed by its entry.
UniProt P35241, whole entry: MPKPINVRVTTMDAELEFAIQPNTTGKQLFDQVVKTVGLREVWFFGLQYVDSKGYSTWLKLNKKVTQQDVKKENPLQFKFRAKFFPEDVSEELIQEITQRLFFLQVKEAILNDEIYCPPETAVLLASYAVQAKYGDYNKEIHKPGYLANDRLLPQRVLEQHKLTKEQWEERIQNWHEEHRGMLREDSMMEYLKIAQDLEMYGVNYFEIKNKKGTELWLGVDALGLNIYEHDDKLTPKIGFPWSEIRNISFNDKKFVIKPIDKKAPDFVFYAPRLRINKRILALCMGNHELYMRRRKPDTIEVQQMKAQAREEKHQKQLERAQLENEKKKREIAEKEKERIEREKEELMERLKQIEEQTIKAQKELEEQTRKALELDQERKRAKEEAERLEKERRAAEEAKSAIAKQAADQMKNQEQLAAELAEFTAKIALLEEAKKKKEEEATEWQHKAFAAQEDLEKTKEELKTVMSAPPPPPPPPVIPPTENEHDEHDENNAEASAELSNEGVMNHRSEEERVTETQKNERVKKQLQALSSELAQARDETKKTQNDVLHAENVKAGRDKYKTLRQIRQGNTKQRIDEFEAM
UniProt Q96HR9: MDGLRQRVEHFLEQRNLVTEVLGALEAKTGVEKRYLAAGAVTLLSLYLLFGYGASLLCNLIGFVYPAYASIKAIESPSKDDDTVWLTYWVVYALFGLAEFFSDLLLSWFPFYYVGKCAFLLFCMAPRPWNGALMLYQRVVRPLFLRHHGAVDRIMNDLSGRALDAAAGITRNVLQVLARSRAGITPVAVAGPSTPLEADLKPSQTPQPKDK
UniProt Q7L523, whole entry: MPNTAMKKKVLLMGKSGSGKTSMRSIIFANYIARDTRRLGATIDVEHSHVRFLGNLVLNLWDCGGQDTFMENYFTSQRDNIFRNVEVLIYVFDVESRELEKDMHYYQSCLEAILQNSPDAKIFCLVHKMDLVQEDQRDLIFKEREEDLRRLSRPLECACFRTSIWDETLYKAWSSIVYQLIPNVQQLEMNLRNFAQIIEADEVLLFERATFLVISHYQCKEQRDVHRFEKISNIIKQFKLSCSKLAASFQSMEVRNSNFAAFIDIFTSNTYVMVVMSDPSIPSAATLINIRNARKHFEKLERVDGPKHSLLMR
UniProt Q9Y2Q5, whole entry: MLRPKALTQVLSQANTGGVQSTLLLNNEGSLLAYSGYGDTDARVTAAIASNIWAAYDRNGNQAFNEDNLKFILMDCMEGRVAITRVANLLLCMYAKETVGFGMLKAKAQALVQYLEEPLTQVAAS
UniProt Q96T23: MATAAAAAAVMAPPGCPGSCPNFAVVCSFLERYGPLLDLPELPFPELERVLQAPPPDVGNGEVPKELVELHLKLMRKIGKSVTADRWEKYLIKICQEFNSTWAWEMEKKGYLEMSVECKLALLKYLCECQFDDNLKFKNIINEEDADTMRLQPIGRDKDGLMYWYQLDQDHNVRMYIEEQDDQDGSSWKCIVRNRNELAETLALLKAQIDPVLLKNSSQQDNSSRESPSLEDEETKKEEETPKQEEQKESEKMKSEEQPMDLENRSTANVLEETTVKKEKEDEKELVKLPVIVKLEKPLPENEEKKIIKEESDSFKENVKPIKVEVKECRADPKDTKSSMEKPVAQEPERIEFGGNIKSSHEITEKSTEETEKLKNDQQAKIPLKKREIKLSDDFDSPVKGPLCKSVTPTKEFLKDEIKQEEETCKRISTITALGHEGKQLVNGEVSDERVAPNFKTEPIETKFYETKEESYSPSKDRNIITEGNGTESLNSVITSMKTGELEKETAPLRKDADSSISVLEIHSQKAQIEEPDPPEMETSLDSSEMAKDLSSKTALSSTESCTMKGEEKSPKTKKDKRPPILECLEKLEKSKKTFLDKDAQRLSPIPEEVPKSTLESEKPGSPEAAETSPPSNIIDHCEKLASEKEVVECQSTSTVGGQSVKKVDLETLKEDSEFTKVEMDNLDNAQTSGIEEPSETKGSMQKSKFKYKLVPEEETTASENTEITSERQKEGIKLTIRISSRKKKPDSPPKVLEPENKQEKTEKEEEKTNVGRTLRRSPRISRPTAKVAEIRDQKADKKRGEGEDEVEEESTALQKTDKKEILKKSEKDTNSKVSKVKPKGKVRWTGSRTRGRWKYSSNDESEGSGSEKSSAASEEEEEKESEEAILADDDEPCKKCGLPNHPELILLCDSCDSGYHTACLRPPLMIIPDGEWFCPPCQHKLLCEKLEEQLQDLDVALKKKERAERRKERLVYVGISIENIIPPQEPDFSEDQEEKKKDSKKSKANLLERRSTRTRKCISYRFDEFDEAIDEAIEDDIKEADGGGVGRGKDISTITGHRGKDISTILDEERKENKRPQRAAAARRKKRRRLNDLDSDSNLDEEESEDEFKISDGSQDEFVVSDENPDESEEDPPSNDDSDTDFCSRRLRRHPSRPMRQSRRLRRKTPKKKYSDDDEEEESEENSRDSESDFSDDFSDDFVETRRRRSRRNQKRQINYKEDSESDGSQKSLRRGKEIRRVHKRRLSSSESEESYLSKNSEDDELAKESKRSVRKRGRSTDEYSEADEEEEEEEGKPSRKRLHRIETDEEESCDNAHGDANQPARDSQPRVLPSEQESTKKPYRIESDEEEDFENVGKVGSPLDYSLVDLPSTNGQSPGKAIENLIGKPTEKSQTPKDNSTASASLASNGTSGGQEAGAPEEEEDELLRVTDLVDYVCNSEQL
UniProt Q96P16: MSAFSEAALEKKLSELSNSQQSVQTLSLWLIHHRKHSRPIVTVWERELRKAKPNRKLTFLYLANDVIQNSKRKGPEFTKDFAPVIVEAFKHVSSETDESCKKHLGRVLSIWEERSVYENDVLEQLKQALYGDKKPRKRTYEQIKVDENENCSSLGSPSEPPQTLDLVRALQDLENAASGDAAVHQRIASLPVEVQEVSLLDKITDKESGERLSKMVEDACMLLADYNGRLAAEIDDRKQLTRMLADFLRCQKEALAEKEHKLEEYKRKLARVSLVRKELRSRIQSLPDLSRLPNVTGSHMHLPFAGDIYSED
UniProt Q9Y388: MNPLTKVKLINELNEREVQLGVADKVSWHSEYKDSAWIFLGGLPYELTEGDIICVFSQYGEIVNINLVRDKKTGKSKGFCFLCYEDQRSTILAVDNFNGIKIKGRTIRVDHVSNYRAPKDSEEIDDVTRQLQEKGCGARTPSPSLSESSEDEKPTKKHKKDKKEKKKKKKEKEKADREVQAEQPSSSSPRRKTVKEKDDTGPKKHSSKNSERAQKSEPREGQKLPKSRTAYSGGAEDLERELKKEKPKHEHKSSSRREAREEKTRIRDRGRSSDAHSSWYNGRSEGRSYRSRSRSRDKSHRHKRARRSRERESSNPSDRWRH
UniProt Q9UBE0: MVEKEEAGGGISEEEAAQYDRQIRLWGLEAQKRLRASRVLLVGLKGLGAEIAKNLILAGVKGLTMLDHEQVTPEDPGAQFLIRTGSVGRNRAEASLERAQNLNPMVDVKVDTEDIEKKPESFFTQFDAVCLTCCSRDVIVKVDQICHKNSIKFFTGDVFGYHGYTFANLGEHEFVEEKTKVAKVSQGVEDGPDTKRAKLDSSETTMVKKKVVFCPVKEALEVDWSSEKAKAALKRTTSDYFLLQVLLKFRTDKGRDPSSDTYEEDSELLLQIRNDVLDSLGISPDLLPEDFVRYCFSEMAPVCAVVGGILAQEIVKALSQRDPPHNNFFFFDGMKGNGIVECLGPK
UniProt Q8IXI1, whole entry, looked up: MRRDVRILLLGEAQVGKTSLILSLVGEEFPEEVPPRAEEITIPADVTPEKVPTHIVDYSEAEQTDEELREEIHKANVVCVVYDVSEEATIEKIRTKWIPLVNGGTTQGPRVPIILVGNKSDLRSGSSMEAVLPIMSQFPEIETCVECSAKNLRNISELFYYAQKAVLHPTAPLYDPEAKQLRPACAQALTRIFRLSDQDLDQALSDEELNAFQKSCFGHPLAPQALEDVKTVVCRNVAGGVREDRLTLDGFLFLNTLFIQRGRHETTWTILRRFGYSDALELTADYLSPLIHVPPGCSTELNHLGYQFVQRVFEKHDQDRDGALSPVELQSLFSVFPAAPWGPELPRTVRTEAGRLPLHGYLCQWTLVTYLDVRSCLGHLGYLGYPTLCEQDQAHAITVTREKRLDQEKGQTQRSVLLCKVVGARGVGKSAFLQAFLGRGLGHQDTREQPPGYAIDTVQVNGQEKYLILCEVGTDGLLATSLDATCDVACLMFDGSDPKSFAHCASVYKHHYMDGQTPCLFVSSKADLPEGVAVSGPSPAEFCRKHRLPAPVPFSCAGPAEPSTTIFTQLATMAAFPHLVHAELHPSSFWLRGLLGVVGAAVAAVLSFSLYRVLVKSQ
UniProt O15541: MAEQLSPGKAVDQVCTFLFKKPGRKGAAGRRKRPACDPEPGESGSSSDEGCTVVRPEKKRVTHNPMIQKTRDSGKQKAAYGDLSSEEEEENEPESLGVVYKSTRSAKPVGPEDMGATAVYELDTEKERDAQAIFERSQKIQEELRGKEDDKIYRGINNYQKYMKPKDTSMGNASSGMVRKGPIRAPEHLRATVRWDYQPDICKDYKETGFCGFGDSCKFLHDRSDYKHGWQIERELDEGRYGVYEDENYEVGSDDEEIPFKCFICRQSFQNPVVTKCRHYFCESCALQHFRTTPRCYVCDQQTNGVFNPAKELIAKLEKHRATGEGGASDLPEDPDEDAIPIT
UniProt Q9Y3V2: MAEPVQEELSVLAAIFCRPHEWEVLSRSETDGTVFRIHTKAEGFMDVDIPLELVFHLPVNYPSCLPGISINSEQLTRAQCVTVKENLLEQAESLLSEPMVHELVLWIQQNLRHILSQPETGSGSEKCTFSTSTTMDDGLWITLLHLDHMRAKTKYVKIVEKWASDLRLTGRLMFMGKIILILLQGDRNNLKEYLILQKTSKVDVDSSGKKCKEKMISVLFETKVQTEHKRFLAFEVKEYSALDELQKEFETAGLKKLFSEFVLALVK
UniProt Q5TC82: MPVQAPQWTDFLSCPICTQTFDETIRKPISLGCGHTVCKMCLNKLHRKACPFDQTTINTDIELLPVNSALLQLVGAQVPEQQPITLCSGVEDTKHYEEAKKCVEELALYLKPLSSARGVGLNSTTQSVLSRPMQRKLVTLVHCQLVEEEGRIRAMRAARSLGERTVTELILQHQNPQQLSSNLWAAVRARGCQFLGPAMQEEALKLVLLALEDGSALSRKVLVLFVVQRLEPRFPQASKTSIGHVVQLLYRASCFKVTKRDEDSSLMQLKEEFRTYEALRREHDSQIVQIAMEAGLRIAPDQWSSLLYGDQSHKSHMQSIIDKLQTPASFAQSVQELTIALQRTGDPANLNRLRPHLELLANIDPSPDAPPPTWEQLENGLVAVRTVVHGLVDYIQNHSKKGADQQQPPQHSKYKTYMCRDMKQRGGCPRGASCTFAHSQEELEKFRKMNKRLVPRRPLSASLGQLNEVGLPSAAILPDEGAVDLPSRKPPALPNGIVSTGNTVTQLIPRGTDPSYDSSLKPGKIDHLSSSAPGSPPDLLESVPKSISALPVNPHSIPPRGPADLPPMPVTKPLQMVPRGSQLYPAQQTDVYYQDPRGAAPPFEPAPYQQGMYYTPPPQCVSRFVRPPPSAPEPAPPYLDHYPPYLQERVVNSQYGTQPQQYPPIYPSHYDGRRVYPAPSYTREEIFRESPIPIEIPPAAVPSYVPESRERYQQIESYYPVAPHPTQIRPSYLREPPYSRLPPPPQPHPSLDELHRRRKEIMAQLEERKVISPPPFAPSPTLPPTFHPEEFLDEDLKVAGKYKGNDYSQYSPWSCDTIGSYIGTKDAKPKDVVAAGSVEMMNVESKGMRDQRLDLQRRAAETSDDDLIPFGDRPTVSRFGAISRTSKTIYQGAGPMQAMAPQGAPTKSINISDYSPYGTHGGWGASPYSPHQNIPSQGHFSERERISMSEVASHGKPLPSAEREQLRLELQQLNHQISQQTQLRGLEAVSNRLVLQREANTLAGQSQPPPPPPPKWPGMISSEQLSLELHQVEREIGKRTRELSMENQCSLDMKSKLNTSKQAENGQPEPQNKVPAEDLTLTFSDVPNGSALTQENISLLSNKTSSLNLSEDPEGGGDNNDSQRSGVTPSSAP
UniProt O00442: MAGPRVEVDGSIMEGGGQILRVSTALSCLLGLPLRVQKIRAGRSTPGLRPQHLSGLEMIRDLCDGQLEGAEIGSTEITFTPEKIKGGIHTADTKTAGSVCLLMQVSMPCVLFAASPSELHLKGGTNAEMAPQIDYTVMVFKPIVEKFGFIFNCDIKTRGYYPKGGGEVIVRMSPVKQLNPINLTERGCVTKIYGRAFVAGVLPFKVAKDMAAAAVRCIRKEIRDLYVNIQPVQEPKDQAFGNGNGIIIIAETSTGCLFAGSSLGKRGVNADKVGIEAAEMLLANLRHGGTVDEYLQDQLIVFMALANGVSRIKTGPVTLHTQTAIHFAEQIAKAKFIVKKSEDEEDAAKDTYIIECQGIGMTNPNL
UniProt P31949: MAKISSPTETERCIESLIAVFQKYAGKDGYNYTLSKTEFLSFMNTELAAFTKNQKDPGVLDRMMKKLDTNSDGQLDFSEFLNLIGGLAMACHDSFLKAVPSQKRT

Compound: COc1ccc(Cn2ccc3ccc(C(=O)NO)cc32)cc1
Test: dose-dependent thermal stabilisation call (2D-TPP, DLPTP, 10% FDR) (binary (1 = stabilised)); higher = stabilised by the compound
Settings: system: HL-60 intact cells; concentration range 0.04-10 µM

Target | dose-dependent thermal stabilisation call
RDX (UniProt P35241) | inactive: 0
REEP6 (UniProt Q96HR9) | inactive: 0
RTN2 (UniProt O75298) | inactive: 0
RHOG (UniProt P84095) | inactive: 0
RPS6KC1 (UniProt Q96S38) | inactive: 0
RPL23A (UniProt P62750) | inactive: 0
RPS3 (UniProt P23396) | inactive: 0
SACM1L (UniProt Q9NTJ5) | inactive: 0
RRAGA (UniProt Q7L523) | inactive: 0
RPL26 (UniProt P61254) | inactive: 0
ROBLD3 (UniProt Q9Y2Q5) | inactive: 0
RSF1 (UniProt Q96T23) | inactive: 0
RPRD1A (UniProt Q96P16) | inactive: 0
RNASEH2C (UniProt Q8TDP1) | inactive: 0
RBMX2 (UniProt Q9Y388) | inactive: 0
RPS20 (UniProt P60866) | active: 1
SAMSN1 (UniProt Q9NSI8) | inactive: 0
RRS1 (UniProt Q15050) | inactive: 0
REXO1 (UniProt Q8N1G1) | inactive: 0

Look-ups from the results shown:
Under dose-dependent thermal stabilisation call, RNASEH2C (UniProt Q8TDP1) shows inactive: 0
Under dose-dependent thermal stabilisation call, RPS6KC1 (UniProt Q96S38) shows inactive: 0

(list continues)

Target | dose-dependent thermal stabilisation call
SAE1 (UniProt Q9UBE0) | inactive: 0
SAAL1 (UniProt Q96ER3) | inactive: 0
RNF14 (UniProt Q9UBS8) | inactive: 0
RIOK3 (UniProt O14730) | inactive: 0
RHOT2 (UniProt Q8IXI1) | inactive: 0
REEP5 (UniProt Q00765) | inactive: 0
RPS5 (UniProt P46782) | inactive: 0
RNF113A (UniProt O15541) | inactive: 0
RRP12 (UniProt Q5JTH9) | inactive: 0
RFT1 (UniProt Q96AA3) | inactive: 0
RWDD3 (UniProt Q9Y3V2) | inactive: 0
RPS9 (UniProt P46781) | inactive: 0
RC3H1 (UniProt Q5TC82) | inactive: 0
RTCD1 (UniProt O00442) | active: 1
RHBDD2 (UniProt Q6NTF9) | inactive: 0
RPS15 (UniProt P62841) | inactive: 0
S100A11 (UniProt P31949) | inactive: 0
RCC2 (UniProt Q9P258) | inactive: 0
